These are yes or no findings as the source states them, for the method shown. In cells and extracts the contact can be indirect. Some results given as binding are weak or reduced against the parent protein; the word gives no strength.
Biological target: T1, Numb (human (endogenous in Capan-2, PANC-1, BxPC-3)) (UniProt P49757)
T1 sequence: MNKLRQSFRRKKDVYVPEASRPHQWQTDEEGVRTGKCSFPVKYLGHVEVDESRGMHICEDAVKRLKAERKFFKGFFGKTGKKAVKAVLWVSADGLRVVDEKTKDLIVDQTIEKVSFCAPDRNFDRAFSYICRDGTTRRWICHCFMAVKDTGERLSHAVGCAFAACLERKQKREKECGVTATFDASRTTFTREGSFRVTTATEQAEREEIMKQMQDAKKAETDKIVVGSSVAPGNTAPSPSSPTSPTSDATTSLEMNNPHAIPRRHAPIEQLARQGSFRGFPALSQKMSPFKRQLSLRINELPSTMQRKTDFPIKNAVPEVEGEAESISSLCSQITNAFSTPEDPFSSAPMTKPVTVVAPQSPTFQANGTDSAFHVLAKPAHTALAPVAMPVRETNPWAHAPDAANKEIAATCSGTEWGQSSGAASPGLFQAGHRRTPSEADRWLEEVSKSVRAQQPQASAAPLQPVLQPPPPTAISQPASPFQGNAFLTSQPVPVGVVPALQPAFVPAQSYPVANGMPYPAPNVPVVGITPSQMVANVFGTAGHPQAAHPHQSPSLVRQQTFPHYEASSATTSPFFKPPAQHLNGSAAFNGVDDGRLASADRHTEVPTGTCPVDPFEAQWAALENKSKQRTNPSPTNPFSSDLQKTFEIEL
Assay: co-IP; lysates of Capan-2, PANC-1 and BxPC-3 cells (20 mM Tris/HCl pH 7.4, 1.0% NP-40, 1 mM EDTA, 150 mM NaCl); Numb antibody overnight at 4°C, protein A-Sepharose 4B, washed three times with lysis buffer, immunoblot with MSI2 antibody

Sequences of proteins named here, by UniProt entry; tags and fusion partners are left off.
UniProt Q96DH6: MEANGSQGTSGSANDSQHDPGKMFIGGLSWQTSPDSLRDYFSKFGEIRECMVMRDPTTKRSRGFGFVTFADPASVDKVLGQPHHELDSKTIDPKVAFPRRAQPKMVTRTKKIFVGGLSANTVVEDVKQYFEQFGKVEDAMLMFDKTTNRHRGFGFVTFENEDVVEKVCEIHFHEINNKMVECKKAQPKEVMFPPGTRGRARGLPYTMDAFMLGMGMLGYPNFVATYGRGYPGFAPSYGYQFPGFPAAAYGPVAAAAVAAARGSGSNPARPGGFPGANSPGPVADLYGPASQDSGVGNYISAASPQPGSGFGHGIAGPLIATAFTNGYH

binding: binds
Substance: Musashi2 (from UniProt Q96DH6 1-328)
